Experimental data published in the supplement of paper PMC11006884.
Most of the targets with a hit are listed elsewhere, so they are rarer here than in the full data. Single values of this set are uncertain. Only a part is listed here, and it is no random draw.

Sequences of proteins named here, by UniProt entry; tags and fusion partners are left off. A change or cut given only in a name is not applied to a line headed by its entry.
UniProt Q8N5K1: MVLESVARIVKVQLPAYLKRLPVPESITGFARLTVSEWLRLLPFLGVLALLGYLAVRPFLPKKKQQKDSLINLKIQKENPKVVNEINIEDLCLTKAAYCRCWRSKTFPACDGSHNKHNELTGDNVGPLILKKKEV
UniProt Q8WVV9: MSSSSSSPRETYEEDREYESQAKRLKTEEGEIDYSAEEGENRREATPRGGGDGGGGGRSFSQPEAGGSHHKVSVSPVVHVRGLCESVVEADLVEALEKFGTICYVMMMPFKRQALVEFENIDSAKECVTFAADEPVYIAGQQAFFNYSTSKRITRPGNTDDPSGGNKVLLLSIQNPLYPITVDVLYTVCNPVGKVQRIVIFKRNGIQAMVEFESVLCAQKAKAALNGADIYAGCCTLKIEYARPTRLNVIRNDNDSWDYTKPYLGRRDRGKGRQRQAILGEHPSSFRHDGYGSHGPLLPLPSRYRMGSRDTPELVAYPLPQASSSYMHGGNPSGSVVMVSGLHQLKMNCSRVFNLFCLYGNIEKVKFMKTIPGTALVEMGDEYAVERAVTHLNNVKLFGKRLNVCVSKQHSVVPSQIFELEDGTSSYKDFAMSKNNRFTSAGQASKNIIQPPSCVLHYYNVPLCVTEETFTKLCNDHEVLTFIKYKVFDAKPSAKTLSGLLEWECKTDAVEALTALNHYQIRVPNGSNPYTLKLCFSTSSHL
UniProt Q8WY36: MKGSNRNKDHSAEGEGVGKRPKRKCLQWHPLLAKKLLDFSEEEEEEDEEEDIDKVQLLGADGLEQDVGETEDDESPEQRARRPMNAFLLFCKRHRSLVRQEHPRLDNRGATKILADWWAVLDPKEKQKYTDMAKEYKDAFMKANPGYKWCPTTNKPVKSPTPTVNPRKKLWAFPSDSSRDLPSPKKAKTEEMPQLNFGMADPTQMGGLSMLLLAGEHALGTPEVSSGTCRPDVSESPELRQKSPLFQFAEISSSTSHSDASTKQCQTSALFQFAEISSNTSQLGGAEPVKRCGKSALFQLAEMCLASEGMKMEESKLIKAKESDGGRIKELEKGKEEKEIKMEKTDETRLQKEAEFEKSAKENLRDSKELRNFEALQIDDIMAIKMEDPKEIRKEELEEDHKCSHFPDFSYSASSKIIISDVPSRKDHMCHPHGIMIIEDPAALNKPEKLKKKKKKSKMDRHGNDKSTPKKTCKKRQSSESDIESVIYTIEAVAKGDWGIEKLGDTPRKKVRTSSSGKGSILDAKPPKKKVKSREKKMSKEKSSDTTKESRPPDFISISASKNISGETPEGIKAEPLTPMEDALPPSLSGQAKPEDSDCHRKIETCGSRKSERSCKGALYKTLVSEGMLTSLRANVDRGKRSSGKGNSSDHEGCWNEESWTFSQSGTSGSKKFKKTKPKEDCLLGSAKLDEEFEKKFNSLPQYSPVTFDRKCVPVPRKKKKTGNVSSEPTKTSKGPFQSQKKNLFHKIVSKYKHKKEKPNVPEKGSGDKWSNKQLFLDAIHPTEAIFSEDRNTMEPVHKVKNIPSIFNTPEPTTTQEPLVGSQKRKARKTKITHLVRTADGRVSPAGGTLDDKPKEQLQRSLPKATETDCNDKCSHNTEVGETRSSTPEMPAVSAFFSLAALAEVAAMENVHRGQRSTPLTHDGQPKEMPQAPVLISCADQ
UniProt Q8N3Z6: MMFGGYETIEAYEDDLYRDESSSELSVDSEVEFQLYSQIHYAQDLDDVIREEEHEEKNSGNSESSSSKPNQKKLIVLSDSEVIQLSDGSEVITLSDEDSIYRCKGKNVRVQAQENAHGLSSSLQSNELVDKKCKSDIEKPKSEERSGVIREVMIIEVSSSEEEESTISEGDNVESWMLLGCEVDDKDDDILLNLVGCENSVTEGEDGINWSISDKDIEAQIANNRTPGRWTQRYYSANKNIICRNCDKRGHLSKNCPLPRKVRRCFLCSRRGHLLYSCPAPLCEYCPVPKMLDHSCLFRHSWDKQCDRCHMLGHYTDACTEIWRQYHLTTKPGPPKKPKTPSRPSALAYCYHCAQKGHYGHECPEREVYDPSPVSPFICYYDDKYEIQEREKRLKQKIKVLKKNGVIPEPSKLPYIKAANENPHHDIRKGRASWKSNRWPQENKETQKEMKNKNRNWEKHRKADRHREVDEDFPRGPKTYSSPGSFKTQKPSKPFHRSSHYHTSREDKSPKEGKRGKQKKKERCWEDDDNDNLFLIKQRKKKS
UniProt Q8NFW8: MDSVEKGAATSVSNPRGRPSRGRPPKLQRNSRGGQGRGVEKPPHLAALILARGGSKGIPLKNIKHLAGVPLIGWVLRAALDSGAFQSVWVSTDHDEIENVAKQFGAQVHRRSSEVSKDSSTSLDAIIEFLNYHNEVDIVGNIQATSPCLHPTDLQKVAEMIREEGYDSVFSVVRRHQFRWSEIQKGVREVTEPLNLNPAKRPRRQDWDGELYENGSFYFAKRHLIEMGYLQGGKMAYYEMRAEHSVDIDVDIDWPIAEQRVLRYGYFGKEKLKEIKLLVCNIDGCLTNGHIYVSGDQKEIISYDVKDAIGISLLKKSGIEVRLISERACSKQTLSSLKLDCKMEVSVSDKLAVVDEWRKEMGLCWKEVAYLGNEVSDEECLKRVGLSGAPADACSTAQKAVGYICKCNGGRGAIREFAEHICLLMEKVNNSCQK
UniProt Q8N300: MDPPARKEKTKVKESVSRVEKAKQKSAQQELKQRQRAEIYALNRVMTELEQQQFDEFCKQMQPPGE
UniProt Q8WZA9: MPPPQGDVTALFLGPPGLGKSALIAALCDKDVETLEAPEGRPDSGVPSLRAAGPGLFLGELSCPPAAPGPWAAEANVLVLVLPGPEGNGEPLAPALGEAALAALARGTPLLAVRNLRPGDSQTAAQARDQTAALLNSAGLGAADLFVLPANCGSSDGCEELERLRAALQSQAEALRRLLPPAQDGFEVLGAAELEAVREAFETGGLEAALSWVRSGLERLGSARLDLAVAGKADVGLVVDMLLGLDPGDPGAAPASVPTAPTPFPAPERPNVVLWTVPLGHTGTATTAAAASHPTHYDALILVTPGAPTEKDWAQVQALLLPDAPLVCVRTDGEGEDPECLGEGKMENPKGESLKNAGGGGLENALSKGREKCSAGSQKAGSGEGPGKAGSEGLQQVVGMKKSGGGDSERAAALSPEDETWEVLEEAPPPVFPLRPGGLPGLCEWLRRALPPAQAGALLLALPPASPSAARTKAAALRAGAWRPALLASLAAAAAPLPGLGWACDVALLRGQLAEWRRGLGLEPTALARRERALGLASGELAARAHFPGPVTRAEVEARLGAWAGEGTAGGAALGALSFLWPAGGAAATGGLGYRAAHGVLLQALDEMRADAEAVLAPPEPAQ
UniProt Q8WUM0: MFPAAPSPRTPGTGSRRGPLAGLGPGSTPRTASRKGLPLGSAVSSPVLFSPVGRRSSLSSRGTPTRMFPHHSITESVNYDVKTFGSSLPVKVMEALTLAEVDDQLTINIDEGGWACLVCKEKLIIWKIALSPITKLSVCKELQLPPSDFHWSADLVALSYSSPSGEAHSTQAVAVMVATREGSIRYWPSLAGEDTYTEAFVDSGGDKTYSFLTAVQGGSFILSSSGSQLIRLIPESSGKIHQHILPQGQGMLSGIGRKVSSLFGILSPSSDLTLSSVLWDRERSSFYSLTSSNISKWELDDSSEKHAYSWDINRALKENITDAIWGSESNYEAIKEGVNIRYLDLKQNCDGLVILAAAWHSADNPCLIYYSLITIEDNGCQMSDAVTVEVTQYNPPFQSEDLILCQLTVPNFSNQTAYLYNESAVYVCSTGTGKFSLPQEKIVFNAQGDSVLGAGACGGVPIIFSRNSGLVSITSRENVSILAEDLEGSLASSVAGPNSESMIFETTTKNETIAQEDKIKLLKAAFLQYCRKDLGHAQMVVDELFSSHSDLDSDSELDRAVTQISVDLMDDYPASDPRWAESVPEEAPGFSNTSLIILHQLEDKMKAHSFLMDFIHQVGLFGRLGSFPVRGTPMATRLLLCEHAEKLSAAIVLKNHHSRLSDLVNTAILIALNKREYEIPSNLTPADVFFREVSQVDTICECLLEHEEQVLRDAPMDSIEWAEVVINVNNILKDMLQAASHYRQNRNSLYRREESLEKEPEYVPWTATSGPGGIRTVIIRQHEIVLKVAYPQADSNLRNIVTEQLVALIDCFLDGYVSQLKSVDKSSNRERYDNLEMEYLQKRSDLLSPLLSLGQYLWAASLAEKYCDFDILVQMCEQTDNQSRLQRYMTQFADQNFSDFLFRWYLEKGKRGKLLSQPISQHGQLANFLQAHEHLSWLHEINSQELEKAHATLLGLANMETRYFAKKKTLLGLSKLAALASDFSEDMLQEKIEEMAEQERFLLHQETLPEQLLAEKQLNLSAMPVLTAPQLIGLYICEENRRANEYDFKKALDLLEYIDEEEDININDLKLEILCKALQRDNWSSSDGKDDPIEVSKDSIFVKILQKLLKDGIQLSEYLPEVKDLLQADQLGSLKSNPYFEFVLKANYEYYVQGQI
UniProt Q8WUB8: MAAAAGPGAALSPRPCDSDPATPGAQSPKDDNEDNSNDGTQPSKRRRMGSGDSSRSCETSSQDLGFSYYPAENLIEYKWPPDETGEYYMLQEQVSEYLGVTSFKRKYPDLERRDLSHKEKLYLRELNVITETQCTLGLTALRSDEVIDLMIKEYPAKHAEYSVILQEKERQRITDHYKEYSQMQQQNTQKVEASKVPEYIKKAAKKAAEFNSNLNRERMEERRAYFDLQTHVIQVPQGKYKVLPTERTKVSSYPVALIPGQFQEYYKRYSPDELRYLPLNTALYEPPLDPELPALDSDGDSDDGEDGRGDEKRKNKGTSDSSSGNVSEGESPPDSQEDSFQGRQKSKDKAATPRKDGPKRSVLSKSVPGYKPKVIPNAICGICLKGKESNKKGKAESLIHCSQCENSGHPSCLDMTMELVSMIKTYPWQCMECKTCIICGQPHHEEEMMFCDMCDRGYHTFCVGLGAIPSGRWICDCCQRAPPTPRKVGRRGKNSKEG
UniProt Q8NEC7: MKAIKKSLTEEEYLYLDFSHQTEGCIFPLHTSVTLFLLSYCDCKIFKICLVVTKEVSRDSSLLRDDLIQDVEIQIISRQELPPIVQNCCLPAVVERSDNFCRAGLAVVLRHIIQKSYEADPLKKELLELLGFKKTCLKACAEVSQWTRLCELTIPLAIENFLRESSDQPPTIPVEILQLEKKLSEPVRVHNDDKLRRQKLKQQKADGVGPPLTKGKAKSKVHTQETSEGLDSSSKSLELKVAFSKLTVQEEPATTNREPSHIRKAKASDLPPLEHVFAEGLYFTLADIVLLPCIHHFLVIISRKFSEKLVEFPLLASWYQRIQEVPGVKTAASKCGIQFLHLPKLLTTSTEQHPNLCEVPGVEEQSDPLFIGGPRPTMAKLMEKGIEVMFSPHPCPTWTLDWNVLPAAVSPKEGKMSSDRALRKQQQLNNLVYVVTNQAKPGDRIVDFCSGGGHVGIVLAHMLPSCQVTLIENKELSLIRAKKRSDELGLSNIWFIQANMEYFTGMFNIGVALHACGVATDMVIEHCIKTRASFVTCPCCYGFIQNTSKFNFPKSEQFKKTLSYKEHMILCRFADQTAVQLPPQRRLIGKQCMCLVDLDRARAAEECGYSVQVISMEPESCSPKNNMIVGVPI
UniProt Q8TD19: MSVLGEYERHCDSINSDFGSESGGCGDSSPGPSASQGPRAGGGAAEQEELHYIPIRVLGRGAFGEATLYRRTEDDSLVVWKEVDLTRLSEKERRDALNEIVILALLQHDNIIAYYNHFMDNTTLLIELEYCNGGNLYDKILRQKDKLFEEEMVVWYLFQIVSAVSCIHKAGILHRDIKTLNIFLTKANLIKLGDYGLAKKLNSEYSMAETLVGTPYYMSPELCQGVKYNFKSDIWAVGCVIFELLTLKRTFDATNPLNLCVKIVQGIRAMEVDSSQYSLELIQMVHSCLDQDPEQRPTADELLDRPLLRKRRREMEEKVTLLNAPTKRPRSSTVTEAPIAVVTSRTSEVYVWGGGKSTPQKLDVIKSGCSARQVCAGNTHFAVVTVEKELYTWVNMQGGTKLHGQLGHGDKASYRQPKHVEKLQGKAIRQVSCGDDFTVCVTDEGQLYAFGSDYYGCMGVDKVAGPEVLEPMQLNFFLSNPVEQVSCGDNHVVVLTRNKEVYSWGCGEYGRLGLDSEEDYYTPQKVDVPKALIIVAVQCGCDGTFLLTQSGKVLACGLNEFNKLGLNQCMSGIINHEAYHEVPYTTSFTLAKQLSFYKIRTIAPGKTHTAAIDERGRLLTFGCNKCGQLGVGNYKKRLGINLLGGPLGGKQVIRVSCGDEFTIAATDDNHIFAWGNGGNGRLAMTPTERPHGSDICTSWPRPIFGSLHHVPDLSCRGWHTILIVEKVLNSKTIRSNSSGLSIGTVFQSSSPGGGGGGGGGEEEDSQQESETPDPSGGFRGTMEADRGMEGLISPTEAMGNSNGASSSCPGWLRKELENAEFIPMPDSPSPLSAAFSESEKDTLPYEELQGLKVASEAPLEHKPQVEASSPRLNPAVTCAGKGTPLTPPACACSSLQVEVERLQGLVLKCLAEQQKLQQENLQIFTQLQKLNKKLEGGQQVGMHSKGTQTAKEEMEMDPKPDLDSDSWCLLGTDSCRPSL

compound: COC(=O)/C=C/c1ccccc1 [methyl cinnamate]; assay: log2 ratio of iodoacetamide-alkyne labeling of the cysteine site, DMSO over compound (competition); higher = stronger covalent engagement of the cysteine by the compound, active = 1 or more; details: 500 µM; treatment time 1 h; system: HEK293T cell lysate
Outline: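 For each cysteine, the log2 competition ratio is mean control-channel reporter intensity over mean compound-channel reporter intensity. HEK293T lysate (2 mg/mL) was exposed to vehicle or electrophile (500 µM, 1 h, ambient temperature), labelled with iodoacetamide alkyne (1 h), clicked to sCIP-TMT reagents, digested overnight with trypsin at 37 °C, streptavidin-enriched and analysed by Orbitrap Eclipse LC-MS/MS with FAIMS and FragPipe. Cysteines quantified in only one of three replicates, each with duplicate channels, were excluded.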

log2 ratio of iodoacetamide-alkyne labeling, inactive:
CISD2 C92 (UniProt Q8N5K1) -0.071
DMXL2 C1833 (UniProt Q8TDJ6) -0.0256
UniProt Q8WVV9_C505 0.0672
BBX C599 (UniProt Q8WY36) 0.152
ZCCHC7 C524 (UniProt Q8N3Z6) 0.184
CMAS C422 (UniProt Q8NFW8) 0.326
SVBP C58 (UniProt Q8N300) -0.00768
DDX51 C338 (UniProt Q8N8A6) 0.132
UniProt Q8WYQ9_C159 0.0694
UniProt Q8WZA9_C158 0.232
NUP133 C700 (UniProt Q8WUM0) -0.235
LZTR1 C342 (UniProt Q8N653) 0.153
PHF10 C134 (UniProt Q8WUB8) 0.379
GSTCD C335 (UniProt Q8NEC7) -0.0208
NEK9 C25 (UniProt Q8TD19) 0.406

Random excerpt: two records from the list, in no set order.
log2 ratio of iodoacetamide-alkyne labeling, inactive:
DDX51 C338 (UniProt Q8N8A6) 0.132
NEK9 C25 (UniProt Q8TD19) 0.406
